From PMC11655885, “Structural mechanism of CB1R binding to peripheral and biased inverse agonists” (Nature Communications, 2024) come the findings set out here.

Sequences of proteins named here, by UniProt entry; tags and fusion partners are left off.
UniProt P21554: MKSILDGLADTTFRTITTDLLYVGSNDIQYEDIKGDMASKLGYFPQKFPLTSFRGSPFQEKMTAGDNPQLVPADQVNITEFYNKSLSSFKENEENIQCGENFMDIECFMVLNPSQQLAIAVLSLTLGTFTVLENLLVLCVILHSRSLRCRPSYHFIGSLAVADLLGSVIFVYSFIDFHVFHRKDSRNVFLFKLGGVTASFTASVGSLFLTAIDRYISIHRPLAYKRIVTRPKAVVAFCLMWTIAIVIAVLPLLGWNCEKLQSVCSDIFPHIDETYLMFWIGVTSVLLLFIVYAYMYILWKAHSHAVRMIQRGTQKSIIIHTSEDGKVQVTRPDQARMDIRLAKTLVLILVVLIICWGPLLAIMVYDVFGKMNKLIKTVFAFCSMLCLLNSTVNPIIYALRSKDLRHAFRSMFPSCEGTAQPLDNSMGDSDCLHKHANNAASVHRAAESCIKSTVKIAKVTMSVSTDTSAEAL
UniProt P32121: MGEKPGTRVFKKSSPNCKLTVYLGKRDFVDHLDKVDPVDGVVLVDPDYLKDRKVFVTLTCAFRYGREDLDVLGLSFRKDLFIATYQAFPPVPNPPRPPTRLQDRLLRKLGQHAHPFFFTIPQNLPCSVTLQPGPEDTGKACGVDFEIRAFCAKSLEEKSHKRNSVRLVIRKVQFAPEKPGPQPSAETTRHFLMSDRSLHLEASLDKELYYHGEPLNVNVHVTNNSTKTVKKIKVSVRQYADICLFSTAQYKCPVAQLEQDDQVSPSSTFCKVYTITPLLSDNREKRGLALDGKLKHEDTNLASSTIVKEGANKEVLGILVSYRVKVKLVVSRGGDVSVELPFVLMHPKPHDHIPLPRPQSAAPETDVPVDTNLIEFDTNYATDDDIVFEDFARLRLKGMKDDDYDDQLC

No constants are given. Whether binding was seen depends on the method and setting. Binding seen in cells or lysates may run through a third protein. Some binding calls cover weakened binding; strength is not graded here.

The test deals with human CB1R in PathHunter eXpress CNR1 CHO-K1 β-arrestin-2 cells (human) (UniProt P21554). As to the kind of experiment: split reporter; DiscoverX PathHunter β-arrestin-2 recruitment assay for hCNR1 in CHO-K1 cells, with the agonist CP55,940 (30 nM); inverse agonists taranabant, MRI-1867, MRI-1891 titrated.

Take “β-arrestin-2 in PathHunter eXpress CNR1 CHO-K1 β-arrestin-2 cells (from UniProt P32121 1-409)”: the binding entry is “binds”.
